According to doi:10.1101/359117:
Results are given in words; binding and its absence hold for the method and conditions named. A result given as binding can be weak or reduced; the word gives no strength.

Molecular target: SseK3 (Salmonella Typhimurium SL1344), expressed from pGBKT7-SseK3 (Salmonella Typhimurium SL1344)
Experiment: two-hybrid

Row | Substance | binding
1 | death domain of human TNFR1, expressed from pGADT7-hTNFR1 DD (from UniProt P19438 356-441) (domain or fragment) | binds
2 | death domain of human TRAILR2, expressed from pGADT7-hTRAILR2 DD (from UniProt O14763 339-422) (domain or fragment) | no binding
